Laboratory results reported in the supplement of paper PMC12823440, “Inhibitors supercharge kinase turnover through native proteolytic circuits” (Nature, 2025).
Structures can show the parent of a compound that is named as a salt. The list shows a part of the results. Hit calls seldom repeat between salt and free forms of one compound.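 Kinases, fused to nanoluciferase, were expressed in K562 cells; luminescence was measured every 4 h from 2 to 18 h as percent of control (DMSO = 100%, positive control = 0%). A time point is decreased if signal falls significantly (2 sigma). Hits were called by the authors by a rule that is not shown; the count of time points alone does not decide it.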

Sequences of proteins named here, by UniProt entry; tags and fusion partners are left off. A change or cut given only in a name is not applied to a line headed by its entry.
UniProt P31152, whole entry: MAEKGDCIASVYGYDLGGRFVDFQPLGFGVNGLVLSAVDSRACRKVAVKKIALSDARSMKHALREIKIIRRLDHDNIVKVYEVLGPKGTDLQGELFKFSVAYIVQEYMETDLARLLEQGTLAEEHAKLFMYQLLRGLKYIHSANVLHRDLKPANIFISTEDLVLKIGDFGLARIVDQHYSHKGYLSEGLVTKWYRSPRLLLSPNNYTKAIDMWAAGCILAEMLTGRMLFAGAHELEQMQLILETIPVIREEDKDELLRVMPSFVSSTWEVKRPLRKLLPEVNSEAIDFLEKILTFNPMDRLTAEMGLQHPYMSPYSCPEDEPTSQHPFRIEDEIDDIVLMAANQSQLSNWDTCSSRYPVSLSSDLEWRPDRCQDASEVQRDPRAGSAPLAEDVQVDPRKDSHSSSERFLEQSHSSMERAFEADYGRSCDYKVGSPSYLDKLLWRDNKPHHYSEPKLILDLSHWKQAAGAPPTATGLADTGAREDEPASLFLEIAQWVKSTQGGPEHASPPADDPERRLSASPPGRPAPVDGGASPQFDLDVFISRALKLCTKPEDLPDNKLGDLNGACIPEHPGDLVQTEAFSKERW
UniProt P09619, whole entry: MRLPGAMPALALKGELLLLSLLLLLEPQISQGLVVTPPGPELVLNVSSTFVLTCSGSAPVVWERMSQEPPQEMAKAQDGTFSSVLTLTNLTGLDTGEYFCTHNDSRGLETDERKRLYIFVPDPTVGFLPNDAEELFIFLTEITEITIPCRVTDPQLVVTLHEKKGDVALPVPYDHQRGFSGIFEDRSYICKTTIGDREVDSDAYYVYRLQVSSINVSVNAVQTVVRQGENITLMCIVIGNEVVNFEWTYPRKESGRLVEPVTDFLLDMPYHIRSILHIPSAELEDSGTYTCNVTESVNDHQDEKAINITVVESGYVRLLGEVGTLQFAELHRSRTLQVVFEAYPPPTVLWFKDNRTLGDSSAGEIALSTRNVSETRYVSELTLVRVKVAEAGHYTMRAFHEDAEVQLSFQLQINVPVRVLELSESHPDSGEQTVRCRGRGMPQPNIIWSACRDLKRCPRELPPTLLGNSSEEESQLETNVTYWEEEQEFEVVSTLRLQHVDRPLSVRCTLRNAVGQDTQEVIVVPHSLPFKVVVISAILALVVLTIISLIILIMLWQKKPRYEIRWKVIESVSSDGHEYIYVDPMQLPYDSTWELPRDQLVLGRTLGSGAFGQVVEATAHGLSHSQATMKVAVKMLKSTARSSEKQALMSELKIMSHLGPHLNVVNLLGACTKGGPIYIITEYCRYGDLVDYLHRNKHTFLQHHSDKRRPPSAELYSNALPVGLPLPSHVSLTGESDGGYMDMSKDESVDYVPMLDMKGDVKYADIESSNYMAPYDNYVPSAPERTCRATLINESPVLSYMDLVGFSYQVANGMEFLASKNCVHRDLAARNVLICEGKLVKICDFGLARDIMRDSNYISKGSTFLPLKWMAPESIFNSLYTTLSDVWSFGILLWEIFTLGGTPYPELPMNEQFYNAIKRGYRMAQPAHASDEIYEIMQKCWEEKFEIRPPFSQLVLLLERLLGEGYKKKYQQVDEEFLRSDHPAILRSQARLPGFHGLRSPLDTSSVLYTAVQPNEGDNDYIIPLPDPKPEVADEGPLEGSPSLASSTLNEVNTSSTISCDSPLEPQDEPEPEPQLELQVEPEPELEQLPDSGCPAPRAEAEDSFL
UniProt Q15118, whole entry, looked up: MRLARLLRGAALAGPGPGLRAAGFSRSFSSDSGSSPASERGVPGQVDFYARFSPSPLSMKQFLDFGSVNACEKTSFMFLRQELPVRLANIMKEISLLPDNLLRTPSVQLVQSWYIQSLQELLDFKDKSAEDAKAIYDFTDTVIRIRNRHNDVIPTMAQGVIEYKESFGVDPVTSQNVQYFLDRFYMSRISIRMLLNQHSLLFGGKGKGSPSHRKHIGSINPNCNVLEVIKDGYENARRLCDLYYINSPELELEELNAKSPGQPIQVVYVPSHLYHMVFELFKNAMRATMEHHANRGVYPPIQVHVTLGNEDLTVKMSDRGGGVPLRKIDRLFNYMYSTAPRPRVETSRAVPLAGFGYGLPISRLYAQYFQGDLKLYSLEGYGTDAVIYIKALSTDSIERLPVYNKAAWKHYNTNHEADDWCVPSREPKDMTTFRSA
UniProt P42356, whole entry, looked up: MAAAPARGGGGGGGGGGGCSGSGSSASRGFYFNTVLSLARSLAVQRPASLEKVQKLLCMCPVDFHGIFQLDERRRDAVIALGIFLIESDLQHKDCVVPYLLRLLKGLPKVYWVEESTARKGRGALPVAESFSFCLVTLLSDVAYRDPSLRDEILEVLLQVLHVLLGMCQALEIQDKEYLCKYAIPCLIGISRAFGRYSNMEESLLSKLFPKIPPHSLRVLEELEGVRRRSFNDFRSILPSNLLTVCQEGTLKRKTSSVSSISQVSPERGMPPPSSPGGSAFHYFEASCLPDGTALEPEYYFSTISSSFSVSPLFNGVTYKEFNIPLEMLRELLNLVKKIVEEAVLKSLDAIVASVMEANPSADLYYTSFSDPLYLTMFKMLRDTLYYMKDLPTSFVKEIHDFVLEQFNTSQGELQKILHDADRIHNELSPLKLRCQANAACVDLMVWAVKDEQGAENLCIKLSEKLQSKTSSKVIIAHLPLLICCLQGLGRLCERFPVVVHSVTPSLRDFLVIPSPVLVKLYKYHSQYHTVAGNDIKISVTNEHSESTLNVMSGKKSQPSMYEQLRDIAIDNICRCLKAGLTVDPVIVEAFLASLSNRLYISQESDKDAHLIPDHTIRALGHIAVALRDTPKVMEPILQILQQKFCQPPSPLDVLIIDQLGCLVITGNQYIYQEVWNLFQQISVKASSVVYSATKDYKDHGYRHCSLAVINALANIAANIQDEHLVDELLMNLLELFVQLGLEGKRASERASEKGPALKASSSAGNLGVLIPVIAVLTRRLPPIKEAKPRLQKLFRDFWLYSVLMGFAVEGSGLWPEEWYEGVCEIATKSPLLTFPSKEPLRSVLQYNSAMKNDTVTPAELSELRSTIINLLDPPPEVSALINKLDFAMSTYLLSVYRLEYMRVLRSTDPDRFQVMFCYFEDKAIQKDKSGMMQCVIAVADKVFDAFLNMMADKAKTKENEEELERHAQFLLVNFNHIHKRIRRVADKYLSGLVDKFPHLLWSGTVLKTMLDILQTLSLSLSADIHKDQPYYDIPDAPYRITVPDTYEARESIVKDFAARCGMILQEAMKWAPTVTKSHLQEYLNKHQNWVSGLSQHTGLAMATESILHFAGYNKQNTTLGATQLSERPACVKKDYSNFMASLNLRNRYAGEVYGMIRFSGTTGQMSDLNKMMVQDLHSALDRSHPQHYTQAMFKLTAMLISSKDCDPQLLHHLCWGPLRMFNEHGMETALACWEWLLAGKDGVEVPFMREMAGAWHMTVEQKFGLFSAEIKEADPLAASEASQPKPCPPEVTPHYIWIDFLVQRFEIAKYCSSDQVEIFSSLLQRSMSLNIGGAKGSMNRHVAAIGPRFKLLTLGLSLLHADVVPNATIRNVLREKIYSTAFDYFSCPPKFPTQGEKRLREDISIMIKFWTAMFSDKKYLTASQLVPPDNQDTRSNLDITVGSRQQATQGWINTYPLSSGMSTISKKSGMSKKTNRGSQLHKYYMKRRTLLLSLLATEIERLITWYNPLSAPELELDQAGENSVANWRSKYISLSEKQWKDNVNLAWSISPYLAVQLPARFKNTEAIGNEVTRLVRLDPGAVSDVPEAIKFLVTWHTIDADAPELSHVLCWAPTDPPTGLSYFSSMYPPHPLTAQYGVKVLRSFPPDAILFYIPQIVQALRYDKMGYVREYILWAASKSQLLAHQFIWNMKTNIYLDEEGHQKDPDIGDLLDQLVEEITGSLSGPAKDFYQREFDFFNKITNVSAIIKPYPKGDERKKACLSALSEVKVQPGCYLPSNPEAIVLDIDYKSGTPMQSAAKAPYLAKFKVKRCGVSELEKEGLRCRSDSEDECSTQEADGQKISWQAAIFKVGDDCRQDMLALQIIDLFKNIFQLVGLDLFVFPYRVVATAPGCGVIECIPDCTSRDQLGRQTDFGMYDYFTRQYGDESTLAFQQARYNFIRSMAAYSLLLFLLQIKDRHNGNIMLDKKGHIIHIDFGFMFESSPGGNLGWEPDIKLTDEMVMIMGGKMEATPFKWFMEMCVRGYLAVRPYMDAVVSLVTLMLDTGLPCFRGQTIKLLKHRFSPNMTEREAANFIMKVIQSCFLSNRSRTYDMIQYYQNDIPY
UniProt Q13131: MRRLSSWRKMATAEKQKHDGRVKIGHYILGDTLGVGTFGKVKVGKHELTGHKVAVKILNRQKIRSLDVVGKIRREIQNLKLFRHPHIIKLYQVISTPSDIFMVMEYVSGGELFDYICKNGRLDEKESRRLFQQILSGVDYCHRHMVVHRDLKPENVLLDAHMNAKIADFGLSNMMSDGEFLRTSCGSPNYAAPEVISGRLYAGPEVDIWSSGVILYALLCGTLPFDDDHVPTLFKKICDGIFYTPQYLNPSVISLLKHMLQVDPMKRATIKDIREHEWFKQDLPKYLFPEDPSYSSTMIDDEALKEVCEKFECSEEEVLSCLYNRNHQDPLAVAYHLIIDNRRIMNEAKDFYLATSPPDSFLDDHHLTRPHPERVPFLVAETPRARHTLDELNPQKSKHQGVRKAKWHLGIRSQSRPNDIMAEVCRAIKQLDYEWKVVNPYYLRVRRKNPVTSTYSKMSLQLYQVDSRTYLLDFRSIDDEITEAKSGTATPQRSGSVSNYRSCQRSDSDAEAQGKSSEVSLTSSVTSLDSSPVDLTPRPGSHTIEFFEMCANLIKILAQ
UniProt Q05397, whole entry, looked up: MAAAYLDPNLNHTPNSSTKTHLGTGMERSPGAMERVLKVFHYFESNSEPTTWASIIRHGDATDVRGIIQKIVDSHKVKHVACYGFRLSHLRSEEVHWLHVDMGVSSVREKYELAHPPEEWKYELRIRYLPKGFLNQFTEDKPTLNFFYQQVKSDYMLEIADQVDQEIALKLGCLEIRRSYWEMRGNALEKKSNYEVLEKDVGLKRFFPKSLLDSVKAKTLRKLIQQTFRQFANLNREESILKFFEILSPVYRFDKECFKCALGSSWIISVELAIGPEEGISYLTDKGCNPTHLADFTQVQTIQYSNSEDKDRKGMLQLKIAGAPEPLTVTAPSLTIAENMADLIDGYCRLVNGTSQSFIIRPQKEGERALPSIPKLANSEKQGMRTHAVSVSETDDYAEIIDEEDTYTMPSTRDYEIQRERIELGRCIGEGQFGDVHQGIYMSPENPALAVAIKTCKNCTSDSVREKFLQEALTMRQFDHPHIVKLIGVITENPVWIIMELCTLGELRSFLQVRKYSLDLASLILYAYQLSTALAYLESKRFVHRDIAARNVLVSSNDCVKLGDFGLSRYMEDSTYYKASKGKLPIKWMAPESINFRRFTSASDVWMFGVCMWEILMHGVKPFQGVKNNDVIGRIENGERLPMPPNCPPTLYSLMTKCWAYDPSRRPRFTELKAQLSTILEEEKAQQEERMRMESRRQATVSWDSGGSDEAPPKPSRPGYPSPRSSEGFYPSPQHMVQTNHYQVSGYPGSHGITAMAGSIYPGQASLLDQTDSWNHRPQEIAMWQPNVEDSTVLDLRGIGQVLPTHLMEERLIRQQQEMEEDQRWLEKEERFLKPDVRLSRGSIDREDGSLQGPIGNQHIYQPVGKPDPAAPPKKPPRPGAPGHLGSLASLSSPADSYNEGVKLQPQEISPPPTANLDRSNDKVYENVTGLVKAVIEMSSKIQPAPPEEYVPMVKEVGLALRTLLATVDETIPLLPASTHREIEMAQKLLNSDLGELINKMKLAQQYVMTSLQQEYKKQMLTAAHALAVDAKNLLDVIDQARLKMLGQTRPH

Experiments:
Assay in all cases: kinase-Nluc reporter destabilization hit call (1 = scored as downregulated) (binary); higher = compound decreases kinase abundance
Details in all cases: K562, 2-18 h
MAPK1 = MAPK1 (UniProt P28482)
MAPK4 = MAPK4 (UniProt P31152)
MAPKAPK2 = MAPKAPK2 (UniProt P49137)
MKNK1 = MKNK1 (UniProt Q9BUB5)
NTRK2 = NTRK2 (UniProt Q16620)
NTRK3 = NTRK3 (UniProt Q16288)
PAK4 = PAK4 (UniProt O96013)
PBK = PBK (UniProt Q96KB5)
PDGFRB = PDGFRB (UniProt P09619)
PDK1 = PDK1 (UniProt Q15118)
PDPK1 = PDPK1 (UniProt O15530)
PIK4CA = PIK4CA (UniProt P42356)
PIK4CB = PIK4CB (UniProt Q9UBF8)
PLK1 = PLK1 (UniProt P53350)
PRKAA1 = PRKAA1 (UniProt Q13131)
PRKCA = PRKCA (UniProt P17252)
PTK2 = PTK2 (UniProt Q05397)
PTK2B = PTK2B (UniProt Q14289)
RAF1 = RAF1 (UniProt P04049)
[1] = target: RAF1_S257L (clone: RAF1_mut) (UniProt P04049)

Measured: kinase-Nluc reporter destabilization hit call

COc1cc2nccc(Nc3cc(OC)c(OC)c(OC)c3)c2cc1OC [GAK inhibitor 49 (hydrochloride)]
inactive: MAPK1; 10 µM 0 | MAPK4; 10 µM 0 | MAPKAPK2; 10 µM 0 | MKNK1; 10 µM 0 | NTRK2; 10 µM 0 | NTRK3; 10 µM 0 | PAK4; 10 µM 0 | PBK; 10 µM 0 | PDGFRB; 10 µM 0 | PDK1; 10 µM 0 | PDPK1; 10 µM 0 | PIK4CA; 10 µM 0 | PIK4CB; 10 µM 0 | PLK1; 10 µM 0 | PRKAA1; 10 µM 0 | PRKCA; 10 µM 0 | PTK2; 10 µM 0 | PTK2B; 10 µM 0 | RAF1; 10 µM 0 | [1]; 10 µM 0

C=CC(=O)Nc1cc(Nc2ncc(C(=O)OC(C)C)c(-c3cn(C)c4ccccc34)n2)c(OC)cc1N(C)CCN(C)C [Mobocertinib]
inactive: MAPK1; 10 µM 0 | MAPK4; 10 µM 0 | MAPKAPK2; 10 µM 0 | MKNK1; 10 µM 0 | NTRK2; 10 µM 0 | NTRK3; 10 µM 0 | PAK4; 10 µM 0 | PBK; 10 µM 0 | PDGFRB; 10 µM 0 | PDK1; 10 µM 0 | PDPK1; 10 µM 0 | PIK4CA; 10 µM 0 | PIK4CB; 10 µM 0 | PLK1; 10 µM 0 | PRKAA1; 10 µM 0 | PRKCA; 10 µM 0 | PTK2; 10 µM 0 | PTK2B; 10 µM 0 | RAF1; 10 µM 0 | [1]; 10 µM 0

O=C(Nc1ccncc1)Nc1ccc(-c2nc(N3CCOCC3)nc(N3C4CCC3COC4)n2)cc1
inactive: MAPK1; 10 µM 0 | MAPK4; 10 µM 0 | MAPKAPK2; 10 µM 0 | MKNK1; 10 µM 0 | NTRK2; 10 µM 0 | NTRK3; 10 µM 0 | PAK4; 10 µM 0 | PBK; 10 µM 0 | PDGFRB; 10 µM 0 | PDK1; 10 µM 0 | PDPK1; 10 µM 0 | PIK4CA; 10 µM 0 | PIK4CB; 10 µM 0 | PLK1; 10 µM 0 | PRKAA1; 10 µM 0 | PRKCA; 10 µM 0 | PTK2; 10 µM 0 | PTK2B; 10 µM 0 | RAF1; 10 µM 0 | [1]; 10 µM 0

CCCC(=O)Nc1ncnc2c1ncn2[C@@H]1O[C@@H]2COP(=O)(O)O[C@H]2[C@H]1OC(=O)CCC [Bucladesine (sodium)]
inactive: MAPK1; 10 µM 0 | MAPK4; 10 µM 0 | MAPKAPK2; 10 µM 0 | MKNK1; 10 µM 0 | NTRK2; 10 µM 0 | NTRK3; 10 µM 0 | PAK4; 10 µM 0 | PBK; 10 µM 0 | PDGFRB; 10 µM 0 | PDK1; 10 µM 0 | PDPK1; 10 µM 0 | PIK4CA; 10 µM 0 | PIK4CB; 10 µM 0 | PLK1; 10 µM 0 | PRKAA1; 10 µM 0 | PRKCA; 10 µM 0 | PTK2; 10 µM 0 | PTK2B; 10 µM 0 | RAF1; 10 µM 0 | [1]; 10 µM 0

N#CCNC(=O)c1ccc(-c2ccnc(Nc3ccc(N4CCOCC4)cc3)n2)cc1 [Momelotinib sulfate]
inactive: MAPK1; 10 µM 0 | MAPK4; 10 µM 0 | MAPKAPK2; 10 µM 0 | MKNK1; 10 µM 0 | NTRK2; 10 µM 0 | NTRK3; 10 µM 0 | PAK4; 10 µM 0 | PBK; 10 µM 0 | PDGFRB; 10 µM 0 | PDK1; 10 µM 0 | PDPK1; 10 µM 0 | PIK4CA; 10 µM 0 | PIK4CB; 10 µM 0 | PLK1; 10 µM 0 | PRKAA1; 10 µM 0 | PRKCA; 10 µM 0 | PTK2; 10 µM 0 | PTK2B; 10 µM 0 | RAF1; 10 µM 0 | [1]; 10 µM 0

C#Cc1cccc(Nc2ncnc3cc(OCCOC)c(OCCOC)cc23)c1 [Erlotinib]
inactive: MAPK1; 10 µM 0 | MAPK4; 10 µM 0 | MAPKAPK2; 10 µM 0 | MKNK1; 10 µM 0 | NTRK2; 10 µM 0 | NTRK3; 10 µM 0 | PAK4; 10 µM 0 | PBK; 10 µM 0 | PDGFRB; 10 µM 0 | PDK1; 10 µM 0 | PDPK1; 10 µM 0 | PIK4CA; 10 µM 0 | PIK4CB; 10 µM 0 | PLK1; 10 µM 0 | PRKAA1; 10 µM 0 | PRKCA; 10 µM 0 | PTK2; 10 µM 0 | PTK2B; 10 µM 0 | RAF1; 10 µM 0 | [1]; 10 µM 0

CCS(=O)(=O)N1CC(CC#N)(n2cc(-c3ncnc4[nH]ccc34)cn2)C1 [Baricitinib]
inactive: MAPK1; 10 µM 0 | MAPK4; 10 µM 0 | MAPKAPK2; 10 µM 0 | MKNK1; 10 µM 0 | NTRK2; 10 µM 0 | NTRK3; 10 µM 0 | PAK4; 10 µM 0 | PBK; 10 µM 0 | PDGFRB; 10 µM 0 | PDK1; 10 µM 0 | PDPK1; 10 µM 0 | PIK4CA; 10 µM 0 | PIK4CB; 10 µM 0 | PLK1; 10 µM 0 | PRKAA1; 10 µM 0 | PRKCA; 10 µM 0 | PTK2; 10 µM 0 | PTK2B; 10 µM 0 | RAF1; 10 µM 0 | [1]; 10 µM 0

Cc1ccc(NC(=O)c2ccc(CN3CCN(C)CC3)cc2)cc1Nc1nc(-c2cccnc2)cs1 [Masitinib (mesylate)]
active: [1]; 2.5 µM 1
inactive: MAPK1; 2.5 µM 0 | MAPK4; 2.5 µM 0 | MAPKAPK2; 2.5 µM 0 | MKNK1; 2.5 µM 0 | NTRK2; 2.5 µM 0 | NTRK3; 2.5 µM 0 | PAK4; 2.5 µM 0 | PBK; 2.5 µM 0 | PDGFRB; 2.5 µM 0 | PDK1; 2.5 µM 0 | PDPK1; 2.5 µM 0 | PIK4CA; 2.5 µM 0 | PIK4CB; 2.5 µM 0 | PLK1; 2.5 µM 0 | PRKAA1; 2.5 µM 0 | PRKCA; 2.5 µM 0 | PTK2; 2.5 µM 0 | PTK2B; 2.5 µM 0 | RAF1; 2.5 µM 0

O=C(O)c1ccc2c(c1)nc(Nc1cccc(Cl)c1)c1ccncc12 [Silmitasertib]
inactive: MAPK1; 10 µM 0 | MAPK4; 10 µM 0 | MAPKAPK2; 10 µM 0 | MKNK1; 10 µM 0 | NTRK2; 10 µM 0 | NTRK3; 10 µM 0 | PAK4; 10 µM 0 | PBK; 10 µM 0 | PDGFRB; 10 µM 0 | PDK1; 10 µM 0 | PDPK1; 10 µM 0 | PIK4CA; 10 µM 0 | PIK4CB; 10 µM 0 | PLK1; 10 µM 0 | PRKAA1; 10 µM 0 | PRKCA; 10 µM 0 | PTK2; 10 µM 0 | PTK2B; 10 µM 0 | RAF1; 10 µM 0 | [1]; 10 µM 0
